PubChem BioAssay AID652272, Drosophila RNAi Screening Center, 2013

- Assay: 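Finding fly genes that regulate Hedgehog signal transduction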 (primary screen)
- Cell system: Drosophila clone 8 (Cl8) cells
- Reagent: long dsRNA against Drosophila genes
- Measured: 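Plate reader light from a firefly reporter under a ptc promoter fragment that responds to Hedgehog, with Renilla light as transfection reference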
- Reading the numbers: firefly Hh reporter signal: higher = more ptc reporter light; Renilla reference signal: higher = more Renilla control light
- Hit rule: 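Hit when the z-score averaged over two replicates is under -2 or over +3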
- Calls: active = hit: reporter lowered or raised; inactive = not a hit
The deposit covers about 21,000 reagents; below is a random part of those with a known target gene and a result. Over the whole deposit, 503 (2.4%) got an active call. 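Raw plate light values, not normalised; calls rest on replicate z-scores that were not deposited; hits include reporter decreases as well as increases.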 A plus sign joins genes that one reagent is predicted to hit. Not stated in the record: the amount of reagent, the time to read-out.

Target gene | amplicon | firefly Hh reporter signal, replicate 1 | firefly Hh reporter signal, replicate 2 | firefly Hh reporter signal, replicate 3 | Renilla reference signal, replicate 1 | Renilla reference signal, replicate 2 | activity call
Slimp | DRSC13656 | 51383 | 1.93e5 | – | 13706 | 4385 | inactive
CG11509 (retired record) | DRSC17788 | 1.22e5 | 97702 | – | 1536 | 2912 | inactive
BaraA1 + BaraA2 | DRSC05417 | 1.76e5 | 2.25e5 | – | 4377 | 9300 | inactive
sqd | DRSC15160 | 1.24e5 | 1.41e5 | – | 2626 | 3399 | inactive
sqd | DRSC17066 | 4.50e5 | 58438 | – | 5097 | 5097 | active
glob1 | DRSC16959 | 1.27e5 | 78012 | – | 4144 | 3177 | inactive
nompA | DRSC06329 | 1.07e5 | 55235 | – | 2948 | 4257 | inactive
CG33116 | DRSC02045 | 41388 | 38002 | – | 2131 | 1978 | inactive
CG11997 | DRSC14464 | 71842 | 1.02e5 | – | 2691 | 2994 | inactive
CG17343 | DRSC02606 | 1.26e5 | 53561 | – | 3063 | 4768 | inactive
Krn | DRSC11202 | 80592 | – | – | 3884 | 2141 | inactive
Ndc80 | DRSC20221 | 1.08e5 | 74364 | – | 1832 | 1474 | inactive
TotF | DRSC02305 | 73715 | 54544 | – | 1125 | 5154 | inactive
Gr94a | DRSC13597 | 43475 | 1.71e5 | – | 8861 | 3638 | inactive
per | DRSC18818 | 51122 | 2.39e5 | – | 1994 | 9478 | inactive
Cyp309a2 | DRSC00526 | 91916 | 91142 | – | 2032 | 1977 | inactive
CG32373 | DRSC08895 | 88618 | 2.17e5 | – | 2282 | 8100 | inactive
disco | DRSC20323 | 60647 | 2.32e5 | – | 870 | 9308 | inactive
Mad1 | DRSC07561 | 94240 | 83728 | – | 4759 | 3109 | inactive

Active calls, among the entries above:
Target gene | amplicon | firefly Hh reporter signal, replicate 1 | firefly Hh reporter signal, replicate 2 | firefly Hh reporter signal, replicate 3 | Renilla reference signal, replicate 1 | Renilla reference signal, replicate 2 | activity call
sqd | DRSC17066 | 4.50e5 | 58438 | – | 5097 | 5097 | active

More records follow.
Target gene | amplicon | firefly Hh reporter signal, replicate 1 | firefly Hh reporter signal, replicate 2 | firefly Hh reporter signal, replicate 3 | Renilla reference signal, replicate 1 | Renilla reference signal, replicate 2 | activity call
ChT | DRSC16296 | 64869 | 43973 | – | 1969 | 2010 | inactive
l(2)37Cd | DRSC02069 | 98251 | 79604 | – | 4240 | 3264 | inactive
Tsp66E | DRSC09683 | 34705 | 50176 | – | 3145 | 3792 | inactive
CG13557 | DRSC04195 | 1.63e5 | 99179 | – | 4280 | 7811 | inactive
Jheh3 | DRSC06533 | 94341 | 86036 | – | 4184 | 3473 | inactive
rept | DRSC11388 | 1.10e5 | 1.46e5 | – | 2626 | 2468 | active
zip | DRSC04725 | 1.00e5 | 6.32e5 | 98966 | 2072 | 38080 | inactive
MED18 | DRSC18549 | 91202 | 2.23e5 | – | 2652 | 8785 | inactive
CG1299 | DRSC08300 | 91510 | 57325 | – | 2778 | 4195 | inactive
CG15764 | DRSC18070 | 68108 | 1.71e5 | – | 2279 | 6461 | inactive
CG15256 | DRSC01491 | 1.90e5 | 3.65e5 | – | 5400 | 17722 | inactive
CG15256 | DRSC01940 | 74635 | 57785 | – | 2045 | 4309 | inactive
BBS4 | DRSC06352 | 8.66e5 | 1.79e5 | – | 8166 | 8166 | inactive
CG2680 | DRSC18466 | 62860 | 1.47e5 | – | 2151 | 5914 | inactive
ng1 | DRSC18802 | 92816 | 2.83e5 | – | 3383 | 9030 | inactive
CG12768 | DRSC11680 | 68082 | 65329 | – | 2551 | 1818 | inactive
Btk | DRSC02008 | 1.00e5 | 44054 | – | 2487 | 4602 | inactive
Btk | DRSC02666 | 1.71e5 | 2.05e5 | – | 7429 | 7430 | inactive
Pif1A | DRSC12708 | 1.74e5 | – | – | 4455 | – | inactive
Pif1A | DRSC14383 | 91192 | 1.07e5 | – | 3577 | 2891 | inactive
CG9231 | DRSC11054 | 1.17e5 | 87308 | – | 4374 | 3088 | inactive
Tsp42Er | DRSC06183 | 77474 | 43872 | – | 2176 | 4374 | inactive
bisc | DRSC04083 | 99735 | 71024 | – | 4160 | 3140 | inactive
Nak | DRSC03379 | 85063 | 61331 | – | 3088 | 2714 | inactive
Dhpr | DRSC11135 | 57572 | 92402 | – | 3709 | 6549 | inactive
Dg | DRSC06718 | 82960 | 78699 | – | 2192 | 4896 | inactive
CG14115 | DRSC10118 | 58009 | 49800 | 44360 | 3531 | 2756 | inactive
srp | DRSC13125 | 54432 | 1.97e5 | – | 11607 | 3095 | inactive
srp | DRSC17068 | 68113 | 56425 | – | 1000 | 3992 | inactive
ND-MLRQ | DRSC11913 | 3.06e5 | – | – | 5568 | – | inactive
CG13409 | DRSC14585 | 7.96e5 | 1.61e5 | – | 46314 | 11634 | inactive
Rfk | DRSC15454 | 1.27e5 | 90576 | – | 5065 | 3512 | inactive
ND2 (retired record) | DRSC21274 | 1.15e5 | 3.43e5 | – | 2156 | 14441 | inactive
Sxl | DRSC18721 | 1.06e5 | 74668 | – | 1865 | 1708 | inactive
Sxl | DRSC18722 | 1.32e5 | 3.74e5 | – | 4307 | 14375 | inactive
Ten-m | DRSC11664 | 1.09e5 | 1.19e5 | – | 3355 | 3418 | inactive
Ten-m | DRSC11882 | 93971 | 99417 | – | 2633 | 2869 | inactive
CG4613 | DRSC10435 | 85771 | – | – | 3142 | 2587 | inactive
